Results: publication PMC3117881
These are yes or no findings as the source states them, for the method shown. In cells and extracts the contact can be indirect. Some results given as binding are weak or reduced against the parent protein; the word gives no strength.

Sequences of proteins named here, by UniProt entry; tags and fusion partners are left off. A change or cut given only in a name is not applied to a line headed by its entry. Residues count along the entry.
UniProt Q8IUC6: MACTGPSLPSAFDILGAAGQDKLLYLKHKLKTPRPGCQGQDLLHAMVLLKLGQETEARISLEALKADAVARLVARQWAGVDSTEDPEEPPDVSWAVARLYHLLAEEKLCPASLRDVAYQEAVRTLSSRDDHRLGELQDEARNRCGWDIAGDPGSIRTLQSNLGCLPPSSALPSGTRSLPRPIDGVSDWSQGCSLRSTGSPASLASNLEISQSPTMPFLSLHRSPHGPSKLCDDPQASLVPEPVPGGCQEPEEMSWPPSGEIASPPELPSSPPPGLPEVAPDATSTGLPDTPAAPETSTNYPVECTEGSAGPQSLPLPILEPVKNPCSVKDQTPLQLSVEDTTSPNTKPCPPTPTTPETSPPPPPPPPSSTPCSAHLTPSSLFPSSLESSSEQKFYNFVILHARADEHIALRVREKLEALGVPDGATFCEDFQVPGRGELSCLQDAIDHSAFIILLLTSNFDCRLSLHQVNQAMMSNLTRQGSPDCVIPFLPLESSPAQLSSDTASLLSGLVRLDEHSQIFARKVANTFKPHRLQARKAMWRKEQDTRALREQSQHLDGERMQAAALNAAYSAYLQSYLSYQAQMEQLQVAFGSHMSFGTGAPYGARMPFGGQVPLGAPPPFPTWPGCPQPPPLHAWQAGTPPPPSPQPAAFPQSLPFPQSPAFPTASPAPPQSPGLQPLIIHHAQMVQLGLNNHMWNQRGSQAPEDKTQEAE
UniProt Q9UMX0: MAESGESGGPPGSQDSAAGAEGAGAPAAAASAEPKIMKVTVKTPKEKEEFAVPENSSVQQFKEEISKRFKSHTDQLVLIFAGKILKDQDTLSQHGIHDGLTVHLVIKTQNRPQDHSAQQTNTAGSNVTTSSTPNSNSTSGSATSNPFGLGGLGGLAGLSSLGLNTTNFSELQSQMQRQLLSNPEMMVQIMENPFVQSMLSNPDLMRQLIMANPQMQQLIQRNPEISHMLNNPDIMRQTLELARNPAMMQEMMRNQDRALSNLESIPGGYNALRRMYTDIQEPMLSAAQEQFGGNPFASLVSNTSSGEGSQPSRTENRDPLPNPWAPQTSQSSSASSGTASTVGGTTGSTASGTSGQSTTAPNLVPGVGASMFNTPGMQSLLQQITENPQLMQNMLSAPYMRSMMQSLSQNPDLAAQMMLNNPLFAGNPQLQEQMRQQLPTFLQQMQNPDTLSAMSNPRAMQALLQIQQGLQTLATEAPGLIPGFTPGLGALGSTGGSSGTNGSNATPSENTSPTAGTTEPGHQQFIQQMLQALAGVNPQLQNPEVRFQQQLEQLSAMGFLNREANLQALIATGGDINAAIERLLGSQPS
GST fusion protein containing PLIC-1 Uba domain alone: residues 546-586 of Q9UMX0

Columns and labels:
Flag-Trif = Flag-Trif (UniProt Q8IUC6); assay: co-IP; 293T cells cotransfected with YFP-PLIC1 or GFP and Flag-Trif; lysates on M2 anti-Flag affinity resin, washed with PBS, western blot
[1] = target: GST fusion protein containing PLIC-1 Uba domain alone (UniProt Q9UMX0); assay: pull-down; GST fusion proteins (around 2 µg) mixed with cell lysates containing Flag-Trif for 2 hours; bound proteins eluted from the GST column and analysed for Flag-Trif; only the target purified

| Substance | binding (Flag-Trif) | binding [1] |
| --- | --- | --- |
| YFP-PLIC-1 (protein linking integrin-associated protein to cytoskeleton 1) (from UniProt Q9UMX0 1-589) | binds |  |
| Flag-Trif (from UniProt Q8IUC6 1-712) |  | binds |
